PubChem BioAssay AID2685 (National Center for Advancing Translational Sciences (NCATS), 2010)
Some of the results follow. Further columns of the screen follow, without active or inactive calls. Compounds called inactive in the main read-out are mostly missing here. Words in brackets tell the shape of the fitted curve; partial curves, single points and poor fits give uncertain potencies.

Assay: qHTS Assay for Lipid Storage Modulators in Drosophila S3 Cells;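 on cell number change: cells counted by Cell Tracker Red CMTPX staining in the red channel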
Conditions: BODIPY lipid droplet fluorescence, 18-24 h; for cell number change: measured here: cell count max response, cells fed with added oleic acid
In short: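 Drosophila S3 cells loaded with oleic acid (400 uM, as added) and compounds at several concentrations; lipid droplets imaged by 488-nm laser-scanning cytometry, 500–530 nm intensity and object ratio to cell channel. Percent activity normalized to 20 uM Triacsin C.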

[1] = measured here: lipid fluorescence (Fed channel) AC50, cells fed with added oleic acid
[2] = measured here: cell number channel AC50, cells fed with added oleic acid

Row | SMILES | cell number change | AC50 [1] | AC50 [2]
1 | OC(c1ccccc1)c1cccnc1 (stereo not drawn) | 12.2% | 14.6 µM [rising, partial curve] | –
2 | O=C(/C=C/c1ccc(F)cc1)NCCCN1CCN(CCCNC(=O)/C=C/c2ccc(F)cc2)CC1 | -46.8% | 0.00461 µM [falling, full curve, poor fit] | 0.461 µM [falling, full curve, poor fit]
3 | CCC(Oc1ccccc1)C(=O)Nc1ccccn1 (stereo not drawn) | -6.89% | – | 0.058 µM [falling, partial curve, poor fit]
4 | COCCn1c(C)cc(/C=C(\C#N)C(=O)OCC(=O)Nc2ccc(S(N)(=O)=O)cc2)c1C | 17% | – | –
5 | Nc1ccccc1C(=O)N=Nc1[nH]c(N)c2ccccc12 | -1.25% | – | –
6 | CCC(C)c1ccc(S(=O)(=O)N2CCN(C(=O)COc3ccc4c(C)cc(=O)oc4c3)CC2)cc1 (stereo not drawn) | 121% | 5.17 µM [rising, full curve] | 29.1 µM [rising, single point]
7 | Cc1ccc(C(=O)Nc2sc(C(=O)N(C)C)c(C)c2C#N)cc1 | 33.3% | 3.26 µM [falling, full curve, poor fit] | 18.4 µM [rising, single point]
8 | CC(Oc1ccc(Br)cc1)C(=O)NCc1ccccn1 (stereo not drawn) | 91.4% | – | 20.6 µM [rising, partial curve]
9 | Cc1csc(NC(=O)c2ccc(COc3ccccc3)o2)n1 | 20.4% | 0.13 µM [falling, full curve] | –
10 | Cc1cc(C(=O)CN2C(=O)NC3(CCC(C)CC3)C2=O)c(C)n1C (stereo not drawn) | 2.62% | 0.259 µM [falling, partial curve] | –
11 | Cc1cc(C)c2c3c(sc2n1)C(c1ccccc1)C(C#N)=C(N)O3 (stereo not drawn) | 56.9% | – | –
12 | NC12CC3CC(C1)CC(O)(C3)C2 | -49.6% | 14.6 µM [falling, partial curve] | 4.11 µM [falling, full curve]
13 | COc1ccccc1N1CCN(c2nc3ccccc3nc2C(C#N)C(=O)OC(C)C)CC1 (stereo not drawn) | -11.1% | 1.84 µM [rising, partial curve] | 1.64 µM [rising, partial curve]
14 | CCCn1c2ccccc2c2cnn(CC(=O)NC3CCCC(C)C3C)c(=O)c21 (stereo not drawn) | – | – | 3.66 µM [rising, single point]
15 | CCN(CC)C(=O)c1cc2c(=O)n3cccc(C)c3nc2n1C | 21.7% | 20.6 µM [rising, single point] | –
16 | COc1cc2c(cc1OC)CN(c1ccc([N+](=O)[O-])cc1C#N)CC2 | 7.32% | 5.8 µM [rising, full curve, poor fit] | –

Taken from above:
In AC50 [2], COc1ccccc1N1CCN(c2nc3ccccc3nc2C(C#N)C(=O)OC(C)C)CC1 (stereo not drawn) reads 1.64 µM [rising, partial curve]
In cell number change, Cc1cc(C)c2c3c(sc2n1)C(c1ccccc1)C(C#N)=C(N)O3 (stereo not drawn) reads 56.9%
